Experimental data reported in the supplement of paper PMC8728848.
Some of the results follow.

Legend:
Assay in all cases: glycan array binding signal (z-score within array); higher = stronger binding
Details in all cases: glycan notation: IUPAC condensed, linker removed
[1] = biological target: Fuc(a1-2)Gal
Summary of the method: (§1)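 The Consortium for Functional Glycomics database supplied 3228 glycan arrays, of which those lacking an available protein sequence were dropped. The binding signal, a within-array Z-score, was averaged across arrays of the same protein sequence and across linkers. Negative scores can be read as non-binding.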

[2] = biological target: Fuc(a1-2)Gal(b1-3)GalNAc
Summary of the method: as §1

[3] = biological target: Fuc(a1-2)Gal(b1-3)GalNAc(a1-3)[Fuc(a1-2)]Gal(b1-4)Glc
Summary of the method: as §1

[4] = biological target: Fuc(a1-2)Gal(b1-3)GalNAc(a1-3)[Fuc(a1-2)]Gal(b1-4)GlcNAc
Summary of the method: as §1

[5] = biological target: Fuc(a1-2)Gal(b1-3)GalNAc(b1-3)Gal
Summary of the method: as §1

[6] = biological target: Fuc(a1-2)Gal(b1-3)GalNAc(b1-3)Gal(a1-4)Gal(b1-4)Glc
Summary of the method: as §1

[7] = biological target: Fuc(a1-2)Gal(b1-3)GalNAc(b1-4)[Neu5Ac(a2-3)]Gal(b1-4)Glc
Summary of the method: as §1

[8] = biological target: Fuc(a1-2)Gal(b1-3)GlcNAc
Summary of the method: as §1

[9] = biological target: Fuc(a1-2)Gal(b1-3)GlcNAc(b1-2)Man(a1-3)[Fuc(a1-2)Gal(b1-3)GlcNAc(b1-2)Man(a1-6)]Man(b1-4)GlcNAc(b1-4)GlcNAc
Summary of the method: as §1

[10] = biological target: Fuc(a1-2)Gal(b1-3)GlcNAc(b1-2)Man(a1-3)[Fuc(a1-2)Gal(b1-3)GlcNAc(b1-2)Man(a1-6)]Man(b1-4)GlcNAc(b1-4)[Fuc(a1-6)]GlcNAc
Summary of the method: as §1

[11] = biological target: Fuc(a1-2)Gal(b1-3)GlcNAc(b1-3)Gal(b1-4)Glc
Summary of the method: as §1

[12] = biological target: Fuc(a1-2)Gal(b1-3)GlcNAc(b1-3)GalNAc
Summary of the method: as §1

[13] = biological target: Fuc(a1-2)Gal(b1-3)GlcNAc(b1-3)[Fuc(a1-2)Gal(b1-3)GlcNAc(b1-6)]GalNAc
Summary of the method: as §1

[14] = biological target: Fuc(a1-2)Gal(b1-3)GlcNAc(b1-3)[Gal(b1-4)GlcNAc(b1-6)]Gal(b1-4)Glc
Summary of the method: as §1

[15] = biological target: Fuc(a1-2)Gal(b1-3)GlcNAc(b1-3)[Neu5Ac(a2-6)Gal(b1-4)GlcNAc(b1-6)]Gal(b1-4)Glc
Summary of the method: as §1

[16] = biological target: Fuc(a1-2)Gal(b1-3)GlcNAc6S
Summary of the method: as §1

[17] = biological target: Fuc(a1-2)Gal(b1-3)[Fuc(a1-4)]GlcNAc
Summary of the method: as §1

[18] = biological target: Fuc(a1-2)Gal(b1-3)[Fuc(a1-4)]GlcNAc(b1-2)Man(a1-3)[Fuc(a1-2)Gal(b1-3)[Fuc(a1-4)]GlcNAc(b1-2)Man(a1-3)]Man(b1-4)GlcNAc(b1-4)GlcNAc
Summary of the method: as §1

[19] = biological target: Fuc(a1-2)Gal(b1-3)[Fuc(a1-4)]GlcNAc(b1-2)Man(a1-3)[Fuc(a1-2)Gal(b1-3)[Fuc(a1-4)]GlcNAc(b1-2)Man(a1-6)]Man(b1-4)GlcNAc(b1-4)[Fuc(a1-6)]GlcNAc(b1-4)[Fuc(a1-6)]GlcNAc
Summary of the method: as §1

[20] = biological target: Fuc(a1-2)Gal(b1-3)[Fuc(a1-4)]GlcNAc(b1-3)[Fuc(a1-3)[Gal(b1-4)]GlcNAc(b1-6)]Gal(b1-4)Glc
Summary of the method: as §1

[21] = biological target: Fuc(a1-2)Gal(b1-3)[Fuc(a1-4)]GlcNAc(b1-3)[Gal(b1-4)GlcNAc(b1-6)]Gal(b1-4)Glc
Summary of the method: as §1

[22] = biological target: Fuc(a1-2)Gal(b1-4)Fuc(a1-3)]GlcNAc(b1-2)Man(a1-3)[Fuc(a1-2)Gal(b1-4)[Fuc(a1-3)]GlcNAc(b1-2)Man(a1-6)]Man(b1-4)GlcNAc(b1-4)GlcNAc
Summary of the method: as §1

[23] = biological target: Fuc(a1-2)Gal(b1-4)Glc
Summary of the method: as §1

[24] = biological target: Fuc(a1-2)Gal(b1-4)Glc6S
Summary of the method: as §1

[25] = biological target: Fuc(a1-2)Gal(b1-4)GlcNAc
Summary of the method: as §1

[26] = biological target: Fuc(a1-2)Gal(b1-4)GlcNAc(b1-2)Man
Summary of the method: as §1

[27] = biological target: Fuc(a1-2)Gal(b1-4)GlcNAc(b1-2)Man(a1-3)[Fuc(a1-2)Gal(b1-4)GlcNAc(b1-2)Man(a1-6)]Man(b1-4)GlcNAc(b1-4)GlcNAc
Summary of the method: as §1

[28] = biological target: Fuc(a1-2)Gal(b1-4)GlcNAc(b1-2)Man(a1-3)[Fuc(a1-2)Gal(b1-4)GlcNAc(b1-2)Man(a1-6)]Man(b1-4)GlcNAc(b1-4)[Fuc(a1-6)]GlcNAc
Summary of the method: as §1

[29] = biological target: Fuc(a1-2)Gal(b1-4)GlcNAc(b1-2)[Fuc(a1-2)Gal(b1-4)GlcNAc(b1-4)]Man(a1-3)[Fuc(a1-2)Gal(b1-4)GlcNAc(b1-2)Man(a1-6)]Man(b1-4)GlcNAc(b1-4)GlcNAc
Summary of the method: as §1

[30] = biological target: Fuc(a1-2)Gal(b1-4)GlcNAc(b1-3)Gal(b1-4)GlcNAc
Summary of the method: as §1

B1: Epa8 (Candida glabrata) (protein)
chain: MGSSHHHHHHSSGLVPRGSHMASSRALSDYPLGCSPLLGTKLTPGLSMELYEYPLDNHGIGPHCWDPAYLNPEYPRTGFESHKLIGTAQNVMSLNFEHRTQDCHVEFSNLPASFNFPDQITLTNFTMLLYGYFKPKESGRYRFHMEADDLLLMNLGAGNAFDCCAHEATRNNLGDYIAYDIWAGTRKDVEVFLEKEVFYPLRLFFNNRDGRAALDFSYYLNGATEPGTDIPELLFSLPDGESCPAYI
[1]
  glycan array binding signal (z-score): 0.189
[2]
  glycan array binding signal (z-score): -0.392
[3]
  glycan array binding signal (z-score): -0.43
[4]
  glycan array binding signal (z-score): -0.029
[5]
  glycan array binding signal (z-score): 0.551
[6]
  glycan array binding signal (z-score): 0.557
[7]
  glycan array binding signal (z-score): -0.251
[8]
  glycan array binding signal (z-score): -0.172
[9]
  glycan array binding signal (z-score): 1.21
[10]
  glycan array binding signal (z-score): 0.141
[11]
  glycan array binding signal (z-score): -0.287
[12]
  glycan array binding signal (z-score): -0.189
[13]
  glycan array binding signal (z-score): -0.495
[14]
  glycan array binding signal (z-score): 0.534
[15]
  glycan array binding signal (z-score): -0.205
[16]
  glycan array binding signal (z-score): -0.148
[17]
  glycan array binding signal (z-score): -0.773
[18]
  glycan array binding signal (z-score): 0.514
[19]
  glycan array binding signal (z-score): 0.464
[20]
  glycan array binding signal (z-score): -0.717
[21]
  glycan array binding signal (z-score): -0.168
[22]
  glycan array binding signal (z-score): 4.2
[23]
  glycan array binding signal (z-score): -0.649
[24]
  glycan array binding signal (z-score): 0.004
[25]
  glycan array binding signal (z-score): -0.45
[26]
  glycan array binding signal (z-score): 0.225
[27]
  glycan array binding signal (z-score): -0.733
[28]
  glycan array binding signal (z-score): -0.33
[29]
  glycan array binding signal (z-score): -0.31
[30]
  glycan array binding signal (z-score): -0.773
